Laboratory results reported in PubChem BioAssay AID248 (DTP/NCI, 2004).
The list shows only some results of the screen, not a fair sample: it gathers tests that were run many times, whatever their T/C, doses with no T/C, and many T/C values between a quarter and a half above the control. Other doses and runs of a compound stand elsewhere. T/C: endpoint of the treated group in % of that of the vehicle group. Some doses have a count of surviving animals in place of a T/C: the source files T/C as zero there, which appears to mark a toxic dose or a test without result, not a measured value. Some doses without a T/C left all or most animals alive at the check, yet need not have been tolerated: the source hardly ever lists a survival T/C far under the control, and the zero likely stands for such cases as well. Survivors were counted at the toxicity check, usually on the fifth day, unless a day is given; later deaths do not show. Schedules are NCI's codes, taken here to give the interval after Q, in days (D) or hours (H), and the number of doses after X. Some entries hold several experiments; their values stand side by side, smallest first. Some schedule codes hold Z or #, which are not explained here. Some molecules as drawn cover several salts, stereoisomers or complexes of the source; a dose is that of the sample tested. For survival time, the PubChem record calls one and a half times the control and up active, and a quarter to a half above the control has no call in these data; cut-offs in other NCI protocols can differ.

System: L1210 leukemia ip in BDF1 mice, survival T/C
Test: NCI In Vivo Anticancer Drug Screen. Data for tumor model L1210 Leukemia (intraperitoneal) in B6D2F1 (BDF1) mice
Settings: T/C endpoint: mean survival time, higher T/C = longer survival
[1] = dose: 400.0 mg/kg/injection, schedule: Q01DX001 (ip), vehicle: carboxymethylcellulose (CMC)
[2] = dose: 100.0 mg/kg/injection, schedule: Q04DX003 (ip), vehicle: Klucel (hydroxypropylcellulose) (HPC)
[3] = dose: 100.0 mg/kg/injection, schedule: Q01DX001 (ip), vehicle: saline
[4] = dose: 200.0 mg/kg/injection, schedule: Q01DX001 (ip), vehicle: saline
[5] = dose: 400.0 mg/kg/injection, schedule: Q01DX001 (ip), vehicle: saline
[6] = dose: 200.0 mg/kg/injection, schedule: Q04DX003 (ip), vehicle: Klucel (hydroxypropylcellulose) (HPC)
[7] = dose: 400.0 mg/kg/injection, schedule: Q04DX003 (ip), vehicle: Klucel (hydroxypropylcellulose) (HPC)
[8] = dose: 400.0 mg/kg/injection, schedule: Q04DX003 (ip), vehicle: saline
[9] = dose: 400.0 mg/kg/injection, schedule: Q01DX009 (ip), vehicle: Klucel (hydroxypropylcellulose) (HPC)
[10] = dose: 200.0 mg/kg/injection, schedule: Q04DX003 (ip), vehicle: saline
[11] = dose: 300.0 mg/kg/injection, schedule: Q01DX001 (ip), vehicle: other
[12] = dose: 200.0 mg/kg/injection, schedule: Q01DX009 (ip), vehicle: saline with Tween-80
[13] = dose: 200.0 mg/kg/injection, schedule: Q01DX009 (ip), vehicle: Klucel (hydroxypropylcellulose) (HPC)
[14] = dose: 200.0 mg/kg/injection, schedule: Q01DX009 (ip), vehicle: saline

O=C1C=C2C(=CCOC2O)O1 (configuration not stated)
survivor count (dose: 8.0 mg/kg/injection, schedule: Q01DX009 (ip), vehicle: Klucel (hydroxypropylcellulose) (HPC)): 1 of 6

CN(C)CCC(c1ccccc1)(c1ccccc1)c1ccccc1
survivor count [1]: 0 of 4

O=C(O)CC(C(=O)O)c1ccccc1O (configuration not stated)
survivor count [2]: 6 of 6

CC1CCCC[N-]1.CC1CCCC[N-]1.N#C[S-].N#C[S-].[Cu] (configuration not stated)
survivor count (dose: 80.0 mg/kg/injection, schedule: Q01DX001 (ip), vehicle: saline): 1 of 4
survivor count [3]: 1 of 4
survivor count [4]: 0 of 4
survivor count [5]: 0 of 4

N#CC(C#N)=Cc1cccnc1
survivor count [2]: 0 of 6
survivor count (dose: 200.0 mg/kg/injection, schedule: Q01DX001 (ip), vehicle: carboxymethylcellulose (CMC)): 0 of 4
survivor count [6]: 0 of 6
survivor count [1]: 0 of 4

CCN(C)N=Nc1cccnc1
T/C (dose: 33.0 mg/kg/injection, schedule: Q01DX009 (ip), vehicle: saline): 131 % of control
T/C (dose: 50.0 mg/kg/injection, schedule: Q01DX009 (ip), vehicle: saline with Tween-80): 141 % of control
survivor count (dose: 75.0 mg/kg/injection, schedule: Q01DX009 (ip), vehicle: saline): 2 of 6
survivor count (dose: 113.0 mg/kg/injection, schedule: Q01DX009 (ip), vehicle: saline): 0 of 6

CS(=O)(=O)c1ccc(F)c([N+](=O)[O-])c1
survivor count [2]: 2 of 3
survivor count [6]: 0 of 3
survivor count [7]: 0 of 3

O=C(CN(CCO)CCO)c1ccc([N+](=O)[O-])cc1
survivor count (dose: 150.0 mg/kg/injection, schedule: Q01DX001 (ip), vehicle: saline): 0 of 6
survivor count (dose: 300.0 mg/kg/injection, schedule: Q01DX001 (ip), vehicle: saline): 0 of 6

FC(F)(F)C1=NC(=S)C(c2[nH]c(C(F)(F)F)nc2S)=N1
survivor count (dose: 400.0 mg/kg/injection, schedule: Q01DX009 (ip), vehicle: water): 1 of 6

NNC(N)=S
survivor count (dose: 25.0 mg/kg/injection, schedule: Q04DX003 (ip), vehicle: saline): 1 of 6
survivor count (dose: 100.0 mg/kg/injection, schedule: Q04DX002 (ip), vehicle: saline): 0 of 3
survivor count (dose: 200.0 mg/kg/injection, schedule: Q04DX002 (ip), vehicle: saline): 0 of 3
survivor count (dose: 400.0 mg/kg/injection, schedule: Q04DX002 (ip), vehicle: saline): 0 of 3

CC(C)(Cc1ccccc1)NC(=O)N(CCCl)N=O
T/C (dose: 16.0 mg/kg/injection, schedule: Q01DX001 (ip), vehicle: other): 125 % of control
T/C (dose: 125.0 mg/kg/injection, schedule: Q01DX001 (ip), vehicle: other): 148 % of control

CCOCN(C)C
T/C (dose: 100.0 mg/kg/injection, schedule: Q01DX009 (ip), vehicle: saline): 128 % of control
survivor count (dose: 150.0 mg/kg/injection, schedule: Q01DX009 (ip), vehicle: saline): 3 of 6
survivor count [4]: 6 of 6
survivor count [5]: 0 of 6

NC1(C(=O)NCC(=O)O)CCCC1
T/C [8]: 125 % of control

C/C=C(\Br)C(=O)O
survivor count (dose: 200.0 mg/kg/injection, schedule: Q04DX003 (ip), vehicle: saline with Tween-80): 1 of 6
survivor count (dose: 400.0 mg/kg/injection, schedule: Q04DX002 (ip), vehicle: other): 1 of 3
survivor count (dose: 400.0 mg/kg/injection, schedule: Q04DX003 (ip), vehicle: saline with Tween-80): 1 of 6

CCN(CC)CCNC(=O)c1c2nc3c(C(=O)NCCN(CC)CC)ccc(C)c3oc-2c(C)c(=O)c1N
survivor count (dose: 150.0 mg/kg/injection, schedule: Q01DX001 (ip), vehicle: carboxymethylcellulose (CMC)): 4 of 6
survivor count (dose: 300.0 mg/kg/injection, schedule: Q01DX001 (ip), vehicle: carboxymethylcellulose (CMC)): 0 of 6

CC(C)NNC(=O)c1ccccc1N
survivor count [9]: 3 of 6

CCCCCCCCP(=O)(N1CC1C)N1CC1C (configuration not stated)
survivor count [10]: 3 of 6
survivor count [8]: 0 of 6

COc1ccc(N(C=O)N=O)cc1
survivor count [11]: 0 of 6

O=C1SC(c2ccccc2)(c2ccccc2)c2cscc21
survivor count [12]: 3 of 3

CC1(C)CCc2ccccc2C1
survivor count [12]: 3 of 3

CC1=CC(C(=O)O)P(C)(=O)C1 (configuration not stated)
survivor count (dose: 200.0 mg/kg/injection, schedule: Q04DX002 (ip), vehicle: saline with Tween-80): 3 of 3

COC(=O)C(CSCc1ccccc1)NC(=O)OCc1ccccc1 (configuration not stated)
survivor count [7]: 6 of 6

COc1ccc(C(=O)Nc2ccc(C3=NCCN3)cc2)cc1C(=O)Nc1ccc(C2=NCCN2)cc1
T/C (dose: 15.0 mg/kg/injection, schedule: Q01DX Z (ip), vehicle: saline): 131 and 148 % of control
survivor count (dose: 240.0 mg/kg/injection, schedule: Q01DX Z (ip), vehicle: saline): 1 of 6
survivor count (dose: 480.0 mg/kg/injection, schedule: Q01DX Z (ip), vehicle: saline): 0 of 6

CCN(CC)C(C)=O
survivor count [3]: 4 of 4

CCOC(=O)c1ccc(OC(=O)Nc2ccc(OC)cc2OC)cc1
survivor count [13]: 6 of 6
survivor count [9]: 2 of 6

O=S(=O)(F)c1ccccc1C[P+](c1ccccc1)(c1ccccc1)c1ccccc1
survivor count (dose: 6.25 mg/kg/injection, schedule: Q01DX009 (ip), vehicle: Klucel (hydroxypropylcellulose) (HPC)): 4 of 6
survivor count (dose: 12.5 mg/kg/injection, schedule: Q01DX009 (ip), vehicle: Klucel (hydroxypropylcellulose) (HPC)): 6 of 6
survivor count (dose: 25.0 mg/kg/injection, schedule: Q01DX009 (ip), vehicle: Klucel (hydroxypropylcellulose) (HPC)): 4 of 6 and 5 of 6
survivor count (dose: 50.0 mg/kg/injection, schedule: Q01DX009 (ip), vehicle: Klucel (hydroxypropylcellulose) (HPC)): 0 of 6
survivor count (dose: 100.0 mg/kg/injection, schedule: Q01DX009 (ip), vehicle: Klucel (hydroxypropylcellulose) (HPC)): 0 of 6
survivor count [13]: 0 of 6
survivor count [9]: 0 of 6

CCCCP(=O)(CCCC)Oc1ccccc1F
survivor count (dose: 400.0 mg/kg/injection, schedule: Q01DX009 (ip), vehicle: saline with Tween-80): 0 of 6

C[n+]1ccccc1/C=C/c1cccc(O)c1
survivor count (dose: 37.5 mg/kg/injection, schedule: Q01DX001 (ip), vehicle: other): 3 of 6

COc1cc(C(=O)O)c(C(=O)O)cc1OC
survivor count (dose: 100.0 mg/kg/injection, schedule: Q01DX001 (ip), vehicle: Klucel (hydroxypropylcellulose) (HPC)): 6 of 6
survivor count (dose: 200.0 mg/kg/injection, schedule: Q01DX001 (ip), vehicle: Klucel (hydroxypropylcellulose) (HPC)): 6 of 6

CCOC(=N)/C=C/c1ccccc1
survivor count [3]: 0 of 6
survivor count [4]: 0 of 6
survivor count [5]: 0 of 6

CCC(C#N)C1=CCCCCC1 (configuration not stated)
survivor count (dose: 50.0 mg/kg/injection, schedule: Q04DX003 (ip), vehicle: saline with Tween-80): 2 of 6

Cc1ccc(COc2ccc(Cl)cc2Cn2ccnc2)cc1
survivor count [14]: 2 of 6
survivor count (dose: 400.0 mg/kg/injection, schedule: Q01DX009 (ip), vehicle: saline): 0 of 6

CN(C)C1CCC2C3CC=C4CC(OC=O)CCC4(C)C3CCC21C (configuration not stated)
survivor count (dose: 75.0 mg/kg/injection, schedule: Q01DX001 (ip), vehicle: other): 1 of 6
survivor count (dose: 150.0 mg/kg/injection, schedule: Q01DX001 (ip), vehicle: other): 0 of 6
survivor count [11]: 0 of 6

CCOC(=O)CNc1cc(N)ncn1
survivor count [14]: 0 of 3

O=[As](O)(O)Cc1cccc(F)c1
survivor count [2]: 2 of 6
survivor count [6]: 5 of 6
survivor count [7]: 2 of 6

CCC(=O)OC(CCN(C)C)(Cc1ccccc1)c1ccccc1 (configuration not stated)
survivor count [10]: 1 of 6
survivor count [8]: 0 of 6
